Values quoted from earlier work as cited in patent US20110003012A1, “TREATING PATIENTS WITH SUBARACHNOID HEMORRHAGE” (Duke University, priority 2007, published 2011).
At least one compound was matched to its structure with a doubt left.

Test system: subarachnoid hemorrhage
Details: cited from earlier work

## CCC(C)(C)C(=O)O[C@H]1C[C@@H](C)C=C2C=C[C@H](C)[C@H](CC[C@@H]3C[C@@H](O)CC(=O)O3)[C@H]21 [simvastatin]
In vivo
  Time to achieve the desired effect: more than one day
Small group of humans with SAH
  Occurrence of vasospasm: the same results
